# According to the supplement of paper PMC9433722:
# Structures can show the parent of a compound that is named as a salt. This is one part of the list. Single values are uncertain, as repeats are few or missing.
# Key:
# Saos-2 = assay: cell viability (CCK-8) relative to DMSO control (% of control); higher = less cytotoxic; conditions: 10 µM; 48 h
# U2OS = assay: as above; conditions: 10 µM; 48 h
Structure (SMILES),cell viability (Saos-2),cell viability (U2OS)
CC(C)C[C@H](NC(=O)[C@@H](Cc1c[nH]c2ccccc12)NC(=O)[C@H](Cc1ccc(O)cc1)NC(=O)[C@H](CO)NC(=O)[C@H](Cc1c[nH]c2ccccc12)NC(=O)[C@H](Cc1cnc[nH]1)NC(=O)[C@@H]1CCC(=O)N1)C(=O)N[C@@H](CCCN=C(N)N)C(=O)N1CCC[C@H]1C(=O)NCC(N)=O [Triptorelin Acetate],63.6,117
CC(C)c1nc(N(C)S(C)(=O)=O)nc(-c2ccc(F)cc2)c1/C=C/[C@@H](O)C[C@@H](O)CC(=O)O [Rosuvastatin Calcium],84.9,102
CC(C)(O/N=C(\C(=O)N[C@@H]1C(=O)N2C(C(=O)[O-])=C(C[n+]3ccccc3)CS[C@H]12)c1csc(N)n1)C(=O)O [Ceftazidime Hydrate],68.7,87.9
CCCCCCCN(CC)CCCC(O)c1ccc(NS(C)(=O)=O)cc1 (stereo not drawn) [Ibutilide Fumarate],104,107
O=P(O)(O)C(Sc1ccc(Cl)cc1)P(=O)(O)O [Tiludronate Disodium],110,98.2
CC(=O)OCC(CCn1cnc2cnc(N)nc21)COC(C)=O [Famciclovir],67.4,103
C[N+](C)(C)C[C@H](O)CC(=O)[O-] [Levocarnitine],112,94.6
CC(=O)O[C@]1(C(C)=O)CC[C@H]2[C@@H]3C=C(C)C4=CC(=O)CC[C@]4(C)[C@H]3CC[C@@]21C [Megestrol Acetate],67.9,106
NCc1ccc(S(N)(=O)=O)cc1 [Mafenide],105,93.6
OCCN1C[C@H](O)[C@@H](O)[C@H](O)[C@H]1CO [Miglitol],107,122
CC(C(=O)O)c1cccc(Oc2ccccc2)c1 (stereo not drawn) [Fenoprofen calcium salt dihydrate],69.3,100
CC(C)(C(=O)c1cccnc1)c1cccnc1 [Metyrapone],100,102
Cn1cnc([N+](=O)[O-])c1Sc1ncnc2[nH]cnc12 [Azathioprine],55.9,80.3
CC(S)C(=O)NCC(=O)O (stereo not drawn) [Tiopronin],106,98
CCCCc1oc2ccccc2c1C(=O)c1cc(I)c(OCCN(CC)CC)c(I)c1 [Amiodarone hydrochloride],58,92.9
CC[C@H](C)C(=O)O[C@H]1C[C@H](O)C=C2C=C[C@H](C)[C@H](CC[C@@H](O)C[C@@H](O)CC(=O)O)[C@H]21 [Pravastatin sodium],106,79.8
COc1cc(C)c(/C=C/C(C)=C/C=C/C(C)=C/C(=O)O)c(C)c1C [Acitretin],63.6,105
C[C@]12CCC3=C4CCC(=O)C=C4CC[C@H]3[C@@H]1CC[C@@]2(O)CC#N [Dienogest],114,108
O=C(NCC1CCCCN1)c1cc(OCC(F)(F)F)ccc1OCC(F)(F)F (stereo not drawn) [Flecainide Acetate],62.1,105
CC(O)(P(=O)(O)O)P(=O)(O)O [Etidronate Disodium],67.9,105
CCCC1O[C@@H]2C[C@H]3[C@@H]4CCC5=CC(=O)C=C[C@]5(C)[C@H]4[C@@H](O)C[C@]3(C)[C@]2(C(=O)CO)O1 (stereo partly drawn) [Budesonide],121,103
CC(CN1c2ccccc2Sc2ccccc21)N(C)C (stereo not drawn) [Promethazine·HCl],66.3,97.2
Nc1ccn([C@@H]2CS[C@H](CO)O2)c(=O)n1 [Lamivudine],115,85.6
COC(=O)C1=C(C)NC(C)=C(C(=O)OC)C1c1ccccc1[N+](=O)[O-] [Nifedipine],51.4,95.1
CCOC(=O)c1ccc(C#Cc2ccc3c(c2)C(C)(C)CCS3)nc1 [Tazarotene],105,95.2
Clc1ccc(CSC(Cn2ccnc2)c2ccc(Cl)cc2Cl)cc1 (stereo not drawn) [Sulconazole Nitrate],108,127
COc1cc2c(cc1OC)C(=O)C(CC1CCN(Cc3ccccc3)CC1)C2 (stereo not drawn) [Donepezil·HCl],61.2,87.3
CCCNC(C)C(=O)Nc1ccccc1C (stereo not drawn) [Prilocaine·HCl],102,79.6
CC(=O)O[C@@]12CO[C@@H]1C[C@H](O)[C@@]1(C)C(=O)[C@H](O)C3=C(C)[C@@H](OC(=O)[C@H](O)[C@@H](NC(=O)OC(C)(C)C)c4ccccc4)C[C@@](O)([C@@H](OC(=O)c4ccccc4)[C@H]21)C3(C)C [Docetaxel],29.3,62.2

# Three entries out of the list, arranged by length of the SMILES, falling.
Structure (SMILES),cell viability (Saos-2),cell viability (U2OS)
CC(C)C[C@H](NC(=O)[C@@H](Cc1c[nH]c2ccccc12)NC(=O)[C@H](Cc1ccc(O)cc1)NC(=O)[C@H](CO)NC(=O)[C@H](Cc1c[nH]c2ccccc12)NC(=O)[C@H](Cc1cnc[nH]1)NC(=O)[C@@H]1CCC(=O)N1)C(=O)N[C@@H](CCCN=C(N)N)C(=O)N1CCC[C@H]1C(=O)NCC(N)=O [Triptorelin Acetate],63.6,117
CC[C@H](C)C(=O)O[C@H]1C[C@H](O)C=C2C=C[C@H](C)[C@H](CC[C@@H](O)C[C@@H](O)CC(=O)O)[C@H]21 [Pravastatin sodium],106,79.8
CC(C)c1nc(N(C)S(C)(=O)=O)nc(-c2ccc(F)cc2)c1/C=C/[C@@H](O)C[C@@H](O)CC(=O)O [Rosuvastatin Calcium],84.9,102
